Results are given in words; binding and its absence hold for the method and conditions named. Some binding calls cover weakened binding; strength is not graded here.
What was measured:
[1] = target: porcine pancreatic elastase (PPE) (porcine) (UniProt P00772); assay: band shift assay: leaf extract incubated with PPE, SDS-PAGE, anti-AAT immunoblot (FIG. 4B)
[2] = target: porcine pancreatic elastase (PPE) (porcine) (UniProt P00772); assay: band shift assay: leaf extract incubated with PPE, SDS-PAGE, anti-AAT immunoblot (FIG. 5B)
[3] = target: porcine pancreatic elastase (PPE) (porcine) (UniProt P00772); assay: functional AAT ELISA: AAT-PPE complex captured by anti-AAT and detected by anti-elastase-HRP; bioreactor culture supernatant

By UniProt entry, the sequences of proteins in these tests, tags left out. Residues count along the entry.
UniProt P00772, residues 27-266: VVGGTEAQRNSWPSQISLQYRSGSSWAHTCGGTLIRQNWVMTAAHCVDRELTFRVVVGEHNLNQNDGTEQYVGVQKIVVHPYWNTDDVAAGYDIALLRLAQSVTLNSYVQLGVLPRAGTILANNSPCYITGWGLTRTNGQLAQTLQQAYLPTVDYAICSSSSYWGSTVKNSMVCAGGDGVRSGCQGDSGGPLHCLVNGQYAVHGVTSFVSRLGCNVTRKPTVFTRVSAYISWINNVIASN
UniProt P01009, residues 25-418: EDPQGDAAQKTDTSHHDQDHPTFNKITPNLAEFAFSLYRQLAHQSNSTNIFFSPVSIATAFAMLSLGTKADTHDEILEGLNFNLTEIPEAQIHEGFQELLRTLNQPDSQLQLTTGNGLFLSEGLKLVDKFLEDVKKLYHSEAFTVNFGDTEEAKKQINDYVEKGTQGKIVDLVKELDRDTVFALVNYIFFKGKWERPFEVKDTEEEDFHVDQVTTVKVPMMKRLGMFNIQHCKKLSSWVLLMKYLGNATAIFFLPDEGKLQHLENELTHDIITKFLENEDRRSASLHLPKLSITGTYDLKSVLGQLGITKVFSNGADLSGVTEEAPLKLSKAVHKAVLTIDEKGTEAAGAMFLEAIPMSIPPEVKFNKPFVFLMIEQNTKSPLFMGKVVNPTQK

binding [1]: binds
binding [2]: binds
binding [3]: binds
Substance: recombinant α1-antitrypsin (rAAT) produced in Nicotiana benthamiana from the SPAAT gene (from UniProt P01009 25-418)
